In doi:10.1101/2023.01.30.525655:
Like-named read-outs stand apart in the source and are kept apart here. These are yes or no findings as the source states them, for the method shown. For some of these results: A result given as binding can be weak or reduced; the word gives no strength. For some of these results: Sequences can lack the tags named with a protein. For some of these results: In cells and extracts the contact can be indirect.

Columns and labels:
[1] = molecular target: T1, RED-NHS-MIF-6xHis (human MIF-6xHis labelled with the RED-NHS dye) (human) (UniProt P14174); test: MST
T1 sequence (chain, RED-NHS dye (chemically labeled)): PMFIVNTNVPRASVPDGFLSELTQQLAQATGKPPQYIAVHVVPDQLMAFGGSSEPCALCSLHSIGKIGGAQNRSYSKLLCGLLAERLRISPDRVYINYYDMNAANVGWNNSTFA

[2] = molecular target: MDL2, yeast two-hybrid fusion (Arabidopsis thaliana) (UniProt F4K9G4); test: two-hybrid
[3] = molecular target: T2, MIF-6xHis (human macrophage migration inhibitory factor, hexahistidine-tagged) (human) (UniProt P14174); test: SEC
T2 sequence: T1 sequence (chain, RED-NHS dye (chemically labeled))

[4] = molecular target: T1, RED-NHS-MIF-6xHis (human MIF-6xHis labelled with the RED-NHS dye) (human); test: MST; remark: listed apart in the source
[5] = molecular target: T3, Biotin-MIF-6xHis (biotinylated human MIF-6xHis) (human) (UniProt P14174); test: pull-down
T3 sequence (chain, biotin (EZ-Link Sulfo-NHS-LC-Biotinylation Kit)): T1 sequence (chain, RED-NHS dye (chemically labeled))

Question: For “MDL3-6xHis (Arabidopsis thaliana MIF/D-DT-like protein 3, hexahistidine-tagged) (from UniProt F4J4H3)”, which binding [1] is on record?
Answer: no binding (only with 100 µM p425)

Question: “MDL1, yeast two-hybrid fusion (from UniProt F4KAK0)” was tested. Which binding [2] did it give?
Answer: binds

Question: Which results are given for “MDL1-6xHis (Arabidopsis thaliana MIF/D-DT-like protein 1, hexahistidine-tagged)”?
Answer: binding [1]: no binding (only with 100 µM p425); binding [3]: binds; binding [4]: no binding (only heat-denatured MDL1); binding [5]: binds

Question: How did the binding [1] turn out when “MDL2-6xHis (Arabidopsis thaliana MIF/D-DT-like protein 2, hexahistidine-tagged) (from UniProt F4K9G4)” was run?
Answer: no binding (only with 100 µM p425)
